Assay results: patent US4221705A, “Novel peptide type antibiotic and the process for the production thereof” (priority 1977, dated 1980)
At least one peptide structure holds a part that was inferred or is arguable (an end, a ring closure or a residue).

Assays:
[1] = test system: Candida albicans; test: Antibiotical effects (Dilution method); assay type: cell-based; conditions: HCl salt
[2] = test system: Candida tropicalis; test: Antibiotical effects (Dilution method); assay type: cell-based; conditions: HCl salt
[3] = test system: Candida pseudo-tropicalis; test: Antibiotical effects (Dilution method); assay type: cell-based; conditions: HCl salt
[4] = test system: Candida utilis; test: Antibiotical effects (Dilution method); assay type: cell-based; conditions: HCl salt
[5] = test system: Candida guilliermondii; test: Antibiotical effects (Dilution method); assay type: cell-based; conditions: HCl salt
[6] = test system: Candida krusei; test: Antibiotical effects (Dilution method); assay type: cell-based; conditions: HCl salt
[7] = test system: Saccharomyces cerevisiae Br-60; test: Antibiotical effects (Dilution method); assay type: cell-based; conditions: HCl salt
[8] = test system: Saccharomyces rouxii bottlucue; test: Antibiotical effects (Dilution method); assay type: cell-based; conditions: HCl salt
[9] = test system: Zygosaccharomyces salsus; test: Antibiotical effects (Dilution method); assay type: cell-based; conditions: HCl salt
[10] = test system: Willia anomala; test: Antibiotical effects (Dilution method); assay type: cell-based; conditions: HCl salt
[11] = test system: Torulaspora delbruckii; test: Antibiotical effects (Dilution method); assay type: cell-based; conditions: HCl salt
[12] = test system: Rhodotorula lupra; test: Antibiotical effects (Dilution method); assay type: cell-based; conditions: HCl salt
[13] = test system: Mycotorula; test: Antibiotical effects (Dilution method); assay type: cell-based; conditions: HCl salt
[14] = test system: Debaryomyces kloecheri; test: Antibiotical effects (Dilution method); assay type: cell-based; conditions: HCl salt
[15] = test system: Pullularia pullulans; test: Antibiotical effects (Dilution method); assay type: cell-based; conditions: HCl salt
[16] = test system: Proteus OX-19; test: Antibiotical effects (Dilution method); assay type: cell-based; conditions: HCl salt
[17] = test system: Bacillus subtilis; test: Antibiotical effects (Dilution method); assay type: cell-based; conditions: HCl salt
[18] = test system: Staphylococcus aureus 209-P; test: Antibiotical effects (Dilution method); assay type: cell-based; conditions: HCl salt
[19] = test system: Escherichia coli; test: Antibiotical effects (Dilution method); assay type: cell-based; conditions: HCl salt
[20] = test system: Bacillus lutea Hata; test: Antibiotical effects (Dilution method); assay type: cell-based; conditions: HCl salt
[21] = test system: Mycobacterium Smegmatis; test: Antibiotical effects (Dilution method); assay type: cell-based; conditions: HCl salt
[22] = test system: Trichohyton asteroide; test: Antibiotical effects (Dilution method); assay type: cell-based; conditions: HCl salt
[23] = test system: Trichohyton lpulam; test: Antibiotical effects (Dilution method); assay type: cell-based; conditions: HCl salt
[24] = test system: trichomonas waginalis; test: Antibiotical effects (Dilution method); assay type: cell-based; conditions: HCl salt
[25] = test system: ascites livercancer cells AH 44; test: Tumor-inhibiting effects with tumor carrying rats, AH 44; assay type: in vivo, rats of Donryu origin; conditions: AH 44 in tail vein, 30 mg/kg orally, 10 times from 72 hours, after 60 days
[26] = test system: ascites livercancer cells AH 66; test: Tumor-inhibiting effects with tumor carrying rats, AH 66; assay type: in vivo, rats of Donryu origin; conditions: AH 66 in tail vein, 30 mg/kg orally, 10 times from 72 hours, after 60 days
[27] = test system: sarcoma cells S-180; test: Tumor-inhibiting effects with tumor-carrying mouse, S-180; assay type: in vivo, mice of dd origin; conditions: Sarcoma cells S-180 i.p.; 35 mg/kg/day for 10 days in peritoneal cavity; after 60 days
[28] = test system: Ehrlich's ascites cancer cells; test: Tumor-inhibiting effects with tumor-carrying mouse, Ehrlich; assay type: in vivo, mice of dd origin; conditions: Ehrlich's ascites cancer cells i.p.; 35 mg/kg/day for 10 days in peritoneal cavity; after 60 days
[29] = test system: leukemic ascites cancer cells SN 36; test: Tumor-inhibiting effects with tumor-carrying mouse, SN 36; assay type: in vivo, mice of dd origin; conditions: Leukemic ascites cancer cells SN 36 i.p.; 35 mg/kg/day for 10 days in peritoneal cavity; after 60 days
[30] = test system: immune system (antibody values in blood against SRBC); test: Effects against the immune system: hemolysine titer method by SRBC administration; assay type: in vivo, mice of ddI origin
[31] = test system: Candida micro-organisms and other yeasts; test: Antibiotical effects, summary for Candida and other yeasts; assay type: cell-based; conditions: summary of the dilution method table
[32] = test system: interferon in blood; test: Interferone inducer-like effects in mouse; conditions: administrated in a living body

C[C@@H](O)[C@H](NC(=O)[C@@H](CCCN)NC(=O)[C@H](CC(O)CNC(=N)N)NC(=O)[C@@H](N)CCCNC(=N)N)C(=O)N[C@H](CCCN)C(=O)N[C@@H](CCCCN)C(=O)N[C@H](Cc1ccc(O)cc1)C(=O)O (single isomer, unassigned) [L-ARG--L-ARG(OH)--D-ORN--L-THR--D-ORN--L-Lys--D-TYR]
Minimum growth inhibiting concentration [1]: 0.2 mc g/ml
Minimum growth inhibiting concentration [2]: 0.2 mc g/ml
Minimum growth inhibiting concentration [3]: 0.2 mc g/ml
Minimum growth inhibiting concentration [4]: 0.2 mc g/ml
Minimum growth inhibiting concentration [5]: 0.2 mc g/ml
Minimum growth inhibiting concentration [6]: 0.2 mc g/ml
Minimum growth inhibiting concentration [7]: 0.2 mc g/ml
Minimum growth inhibiting concentration [8]: 0.2 mc g/ml
Minimum growth inhibiting concentration [9]: 0.2 mc g/ml
Minimum growth inhibiting concentration [10]: 0.2 mc g/ml
Minimum growth inhibiting concentration [11]: 0.2 mc g/ml
Minimum growth inhibiting concentration [12]: 0.2 mc g/ml
Minimum growth inhibiting concentration [13]: 0.2 mc g/ml
Minimum growth inhibiting concentration [14]: 0.2 mc g/ml
Minimum growth inhibiting concentration [15]: 0.2 mc g/ml
Minimum growth inhibiting concentration [16]: 20 mc g/ml
Minimum growth inhibiting concentration [17]: > 100 mc g/ml
Minimum growth inhibiting concentration [18]: > 100 mc g/ml
Minimum growth inhibiting concentration [19]: > 100 mc g/ml
Minimum growth inhibiting concentration [20]: > 100 mc g/ml
Minimum growth inhibiting concentration [21]: > 1000 mc g/ml
Minimum growth inhibiting concentration [22]: > 1000 mc g/ml
Minimum growth inhibiting concentration [23]: > 1000 mc g/ml
Minimum growth inhibiting concentration [24]: > 1000 mc g/ml
Existence Rate [25]: 100%
Existence Rate [26]: 80%
Existence Rate of Mice [27]: 90%
Existence Rate of Mice [28]: 70%
Existence Rate of Mice [29]: 80%
effects against the immune system in the hemolysine titer method [30]: both accelerating and inhibiting effects
antibiotical activity against Candida micro-organisms and other yeasts [31]: strong antibiotical activity
induction of interferon in blood [32]: induces higher units of interferon in blood
